Reference: patent US12636260B2, “Application of α-asarone in preparation of medicine for preventing or treating hemorrhagic stroke” (CHENGDU XINRUI TAIKANG TECHNOLOGY CO., LTD., priority 2021, dated 2026)

Tested on: SAH rats
Experiment: Short-term neurological function of SAH rats (Garcia score, beam balance test, bleeding score)
Type: in vivo, rat
Settings: SAH model, SAH severity after euthanasia
Method: Experimental grouping: At 2 h after endovascular perforation or collagenase VII injection, Zea Longa score was used to evaluate the neurological function of rats. Successful model rats were randomly divided into groups for administration.
All groups were administrated through the tail vein injection except for group N administrated intraperitoneally.
The rats were fasted for 12 hours before operation, and were anesthetized with 4% isoflurane, and kept anesthetized with 2% isoflurane. The animals were fixed in the supine position with the body temperature maintained at about 37° C. A traditional skin incision of the neck was performed along the midline. The muscle and fascia were separated along the medial margin of the sternocleidomastoid muscle to expose the right side, then the common carotid artery (CCA), external carotid artery (ECA) and internal carotid artery (ICA) were bluntly separated with disposal lines placed at CCA proximal end, ICA and ECA for use. The CCA proximal end and the ECA were ligated, and the ICA was temporarily clamped with an arterial clip, and then a small hole was poked with a needle at about 4 mm from the bifurcation at the CCA. A nylon suture was introduced into the CCA from the hole and advanced through the ICA after releasing the arterial clip, and the suture was inserted intracranially. […] The suture moved forward for roughly 2 mm to perforate the artery followed by instant withdraw, and then the suture was completely removed and the ICA was ligated. Finally, the incision was cleaned with normal saline and sutured. The sham group conducted the same procedure as the model group except for the perforation. After awakening from anesthesia, the animals were raised normally.
The SAH severity was grading after rat's euthanasia, i.e., completing the evaluation of short-term neurological function. The score was determined by the amount of subarachnoid hemorrhage on the surface of basal cistern and brain tissue which was divided into six parts by the Willis ring composed of basilar artery, anterior cerebral artery, internal carotid artery, posterior cerebral artery and posterior communicating artery. Each part was graded from 0 to 3 points according to the amount of subarachnoid blood clots, i.e., 0 points: no subarachnoid blood; 1 point: a small amount of subarachnoid blood; 2 points: moderate amount of blood clots with recognizable arteries; 3 points: blood clots cover all arteries in the area. All 6 part scores were added up for a total of 18 points. According to the final score, SAH hemorrhage severity could be divided into mild subarachnoid hemorrhage (0 to 7 points), moderate subarachnoid hemorrhage (8 to 12 points), and severe subarachnoid hemorrhage (13 to 18 points). The moderate to severe SAH models were selected for statistical analysis (score≥8 points).
According to Zea Longa's neurological function score, the rats were scored 2 hours after the operation when they were awake from anesthesia. Successful model rats with a score of 1 to 3 points were enrolled in the group: • 0 points: no neurological deficits with normal activity; • 1 point: inability to fully extend the contralateral forepaw; • 2 points: the animal appears to turn in circles when crawling; • 3 points: the animal tends to lean to the hemiplegic side; • 4 points: the animal cannot walk spontaneously or loses consciousness. 1.4 Assessment of Short-Term Neurological Function
The neurological function of rats was comprehensively evaluated with Garcia score and beam balance test 24 hours after modeling. The criteria of Garcia score are shown in Table 1, which evaluates the movement, sensation, climbing and limb symmetry of the rats with the score range of 3 to 18 points. The lower the score, the more severe the neurological injury. The criteria of the beam balance test are shown in Table 2, which evaluated the proprioception and body coordination of rats with the score range of 0 to 6 points. […]

CCOC(=O)C1=C[C@]2(CC)CCCN3CCc4c(n1c1ccccc41)[C@@H]32 [vinpocetine, reference compound]
Bleeding score (group V, vinpocetine injection 2 mg/kg tail vein): 11.40

C/C=C\c1cc(OC)c(OC)cc1OC [β-asarone, reference compound]
Bleeding score (group B, β-asarone emulsion injection 20 mg/kg tail vein): 11.20

C/C=C/c1cc(OC)c(OC)cc1OC [α-asarone, trans-2,4,5-trimethoxy-1-propenylbenzene]
Bleeding score (group H, α-asarone emulsion injection 30 mg/kg tail vein): 11.75 | Bleeding score (group L, α-asarone emulsion injection 7.5 mg/kg tail vein): 10.94 | Bleeding score (group M, α-asarone emulsion injection 15 mg/kg tail vein): 10.64 | Bleeding score (group O, α-asarone emulsion oral administration 40 mg/kg): 10.39
